PubChem BioAssay AID1259308 – NCATS, 2017
This is one part, drawn at random, of about 59,000 reagents. About 1,510 of them (2.6%) were called active. 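Calls use total luciferase alone and ignore viability, so some active siRNAs may act by altering cell number.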 Unmarked entries are inactive. Reagents against one gene are numbered here.

Test: 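Candidate targets for better recombinant protein yield in mammalian cells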 (primary screen)
Cells: human HEK293 embryonic kidney cells stably expressing firefly luciferase (HEK-CMV-Luc2-Hygro)
Reagent: single siRNA against human genes, 0.8 pmol siRNA per well
Duration: 72 h
Detection: 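Luciferase light (ONE-Glo) measured on one replicate plate set and viability (CellTiter-Glo) on the other, scaled to a negative control siRNA, with robust z-scores and luciferase per cell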
Reading the numbers: total luciferase, z-score and total luciferase, % of control: higher = more reporter protein produced; luciferase per cell, z-score: higher = more reporter output per viable cell; viable cells, % of control: higher = more viable cells
Active means: 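Active when the median/MAD z-score for overall luciferase is greater than 3; a gene was taken forward for validation with new siRNAs if at least two of its three siRNAs passed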
Calls: active = raised luciferase; inactive = no rise

The opening 3 records, ahead of the listing:
Target gene	reagent	total luciferase, z-score	total luciferase, % of control	luciferase per cell, z-score	viable cells, % of control
PPM1J (protein phosphatase, Mg2+/Mn2+ dependent 1J)	1	-0.57	70.6	-0.113	81.2
PPM1J (protein phosphatase, Mg2+/Mn2+ dependent 1J)	2	-1.61	49.9	-1.41	80.9
PPM1J (protein phosphatase, Mg2+/Mn2+ dependent 1J)	3	-0.874	64.5	-1.65	111

Main list, repeating the preview:
Target gene	reagent	total luciferase, z-score	total luciferase, % of control	luciferase per cell, z-score	viable cells, % of control
PPM1J (protein phosphatase, Mg2+/Mn2+ dependent 1J)	1	-0.57	70.6	-0.113	81.2
PPM1J (protein phosphatase, Mg2+/Mn2+ dependent 1J)	2	-1.61	49.9	-1.41	80.9
PPM1J (protein phosphatase, Mg2+/Mn2+ dependent 1J)	3	-0.874	64.5	-1.65	111
RTKN (rhotekin)	1	0.204	85.9	-0.158	100
RTKN (rhotekin)	2	-2.22	37.7	-1.93	70.1
RTKN (rhotekin)	3	0.607	94	0.179	100
SRSF8 (serine and arginine rich splicing factor 8)	1	-1.05	61	-0.849	85.3
SRSF8 (serine and arginine rich splicing factor 8)	2	-0.109	79.7	-0.414	99.3
SRSF8 (serine and arginine rich splicing factor 8)	3	-0.0149	81.6	0.211	86.2
LINC02510 (long independently transcribed non-coding RNA 2510)	1	4.27 (active)	167	3.03	83.9
LINC02510 (long independently transcribed non-coding RNA 2510)	2	-2.48	32.6	-2.31	66.9
LINC02510 (long independently transcribed non-coding RNA 2510)	3	-1.41	53.8	-1.56	90.6
SOX10 (SRY-box transcription factor 10)	1	0.45	90.8	0.0959	99
SOX10 (SRY-box transcription factor 10)	2	-1.53	51.5	-1.74	91.1
SOX10 (SRY-box transcription factor 10)	3	0.315	88.1	-0.196	104
PLEKHM3 (pleckstrin homology domain containing M3)	1	-1.04	61.2	-1.2	93.8
PLEKHM3 (pleckstrin homology domain containing M3)	2	0.702	95.8	0.623	90.9
PLEKHM3 (pleckstrin homology domain containing M3)	3	0.0695	83.3	0.274	86.6
ZKSCAN8 (zinc finger with KRAB and SCAN domains 8)	1	3.82 (active)	158	2.83	83.7
ZKSCAN8 (zinc finger with KRAB and SCAN domains 8)	2	-0.151	78.9	-0.318	95.8
ZKSCAN8 (zinc finger with KRAB and SCAN domains 8)	3	-0.242	77.1	-0.329	93.9
PAAF1 (proteasomal ATPase associated factor 1)	1	0.358	89	-0.035	100
PAAF1 (proteasomal ATPase associated factor 1)	2	0.0333	82.5	0.126	89.2
PAAF1 (proteasomal ATPase associated factor 1)	3	-0.584	70.3	-0.267	84.3
USP36 (ubiquitin specific peptidase 36)	1	0.291	87.7	-0.238	104
USP36 (ubiquitin specific peptidase 36)	2	-0.324	75.4	-0.362	92.7
USP36 (ubiquitin specific peptidase 36)	3	-0.354	74.8	-0.436	93.8
ZNF610 (zinc finger protein 610)	1	-0.524	71.5	-0.088	81.7
ZNF610 (zinc finger protein 610)	2	-0.075	80.4	0.912	70.7
ZNF610 (zinc finger protein 610)	3	0.882	99.4	0.175	106
OAS2 (2'-5'-oligoadenylate synthetase 2)	1	0.217	86.2	-0.464	109
OAS2 (2'-5'-oligoadenylate synthetase 2)	2	-0.676	68.4	-0.308	82.9
OAS2 (2'-5'-oligoadenylate synthetase 2)	3	3.92 (active)	160	2.88	83.6
SRSF11 (serine and arginine rich splicing factor 11)	1	-1.81	45.8	-2.07	88.2
SRSF11 (serine and arginine rich splicing factor 11)	2	0.00614	82	0.0887	89.5
SRSF11 (serine and arginine rich splicing factor 11)	3	0.35	88.8	0.837	79.6
BEX3 (brain expressed X-linked 3)	1	2.9	140	2.53	80.2
BEX3 (brain expressed X-linked 3)	2	-0.313	75.7	-0.771	104
BEX3 (brain expressed X-linked 3)	3	1.81	118	1.38	91.7
PKLR (pyruvate kinase L/R)	1	-0.101	79.9	0.363	81.1
PKLR (pyruvate kinase L/R)	2	4.37 (active)	169	3.73	70.7
PKLR (pyruvate kinase L/R)	3	-0.99	62.2	-1.01	90.6
ERFE (erythroferrone)	1	-1.05	61	-0.691	81.7
ERFE (erythroferrone)	2	-1.07	60.6	-0.877	85.3
ERFE (erythroferrone)	3	-0.312	75.7	0.0678	83.1
PRKAG2-AS2 (PRKAG2 antisense RNA 2)	1	0.261	87.1	-0.0117	97.6
PRKAG2-AS2 (PRKAG2 antisense RNA 2)	2	1.75	117	0.656	110
PRKAG2-AS2 (PRKAG2 antisense RNA 2)	3	-0.0114	81.7	-0.768	112
PRKAG2-AS2 (PRKAG2 antisense RNA 2)	4	-0.418	73.6	0.115	79.8
PRKAG2-AS2 (PRKAG2 antisense RNA 2)	5	0.408	90	0.344	91.9
PRKAG2-AS2 (PRKAG2 antisense RNA 2)	6	-0.229	77.3	-0.176	90.5
UBTF (upstream binding transcription factor)	1	-1.3	56	0.0178	62.3
UBTF (upstream binding transcription factor)	2	-2.59	30.4	-2.71	69.2
UBTF (upstream binding transcription factor)	3	-0.816	65.7	-0.771	89.9
BKGD (beta-keto-L-gulonate decarboxylase)	1	0.799	97.8	0.406	98.2
BKGD (beta-keto-L-gulonate decarboxylase)	2	-0.466	72.6	-0.593	94.9
BKGD (beta-keto-L-gulonate decarboxylase)	3	-0.122	79.5	-0.977	115
